{"source": "patent US20230349903A1", "about": "“ASSAYS AND REAGENTS FOR CHARACTERIZATION OF MHCI PEPTIDE BINDING” (priority 2020, published 2023)", "key": {"HLA-A*02:03": {"biological_target": "HLA-A*02:03 (Homo sapiens, UniProt P04439, A173T/D140Y/D185E/D98H/E277Q/G131W/G231S/I119V/I121R/I166T/I218V/L180W/L300P/L318F/N151K/N90K/P208A/P217A/Q86G/Q94H/R138H/R169H/T345S)", "conditions": "read-out: dissociation constant KD (~IC50), IEDB value, purified MHC/competitive/radioactivity; cited from earlier work"}, "HLA-A*02:03 MHCI complex": {"biological_target": "HLA-A*02:03 MHCI complex (Homo sapiens, UniProt P04439, A173T/D140Y/D185E/D98H/E277Q/G131W/G231S/I119V/I121R/I166T/I218V/L180W/L300P/L318F/N151K/N90K/P208A/P217A/Q86G/Q94H/R138H/R169H/T345S)", "experiment": "2D LC/MS analysis of peptide exchange after UV exposure", "conditions": "HLA-A*02:03 conditional MHCI complex after UV, 100-fold molar excess of exchanged peptide"}}, "note": "Structures were worked out from names or drawings and are uncertain."}
{"smiles": "CC[C@H](C)[C@H](NC(=O)[C@H](Cc1ccccc1)NC(=O)CNC(=O)[C@H](C)NC(=O)[C@@H](NC(=O)[C@H](C)NC(=O)CNC(=O)[C@H](Cc1ccccc1)NC(=O)[C@H](CC(C)C)NC(=O)CN)[C@@H](C)CC)C(=O)O", "values": [{"measurement": "Kd", "setting": "HLA-A*02:03", "value": 1, "unit": "nM"}, {"measurement": "exchange peptide in EIC of the 2nd dimension (peptide exchange)", "setting": "HLA-A*02:03 MHCI complex", "value": "a large peak corresponding to the extracted mass of the A0203-05 peptide was observed"}]}
